No constants are given. Whether binding was seen depends on the method and setting. Binding seen in cells or lysates may run through a third protein. Some binding calls cover weakened binding; strength is not graded here. For part of these data: Tags and fused reporters may be left off the sequences shown. Values belong to the binder of their own block, whether it stands above or below them.
Assays:
[1] = biological target: Bcl-xL (human (endogenous in HEK293)) (UniProt Q07817); assay: co-IP; immunoprecipitation with an antibody against Bcl-xL from HEK293 cells; data not shown
[2] = biological target: T1, MISC-1 (Mitochondrial Solute Carrier) (C. elegans (endogenous in N2)) (UniProt P90992); assay: co-IP; lysates of mixed stage C. elegans (wild type N2 and the MISC-1::GFP transgenic line) in co-immunoprecipitation buffer, several combinations of antibodies, protocol as for mammalian cells, Western blot
T1 sequence: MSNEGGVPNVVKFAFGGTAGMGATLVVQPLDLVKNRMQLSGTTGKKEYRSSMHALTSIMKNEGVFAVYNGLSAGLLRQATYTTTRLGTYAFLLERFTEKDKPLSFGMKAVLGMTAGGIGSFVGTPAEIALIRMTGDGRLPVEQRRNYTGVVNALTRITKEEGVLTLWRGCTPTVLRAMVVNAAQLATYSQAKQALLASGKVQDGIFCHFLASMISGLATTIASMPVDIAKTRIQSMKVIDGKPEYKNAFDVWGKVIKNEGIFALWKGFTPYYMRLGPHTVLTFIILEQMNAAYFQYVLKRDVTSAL

Amino acid sequences for entries named in this document (tags omitted).
UniProt Q07817: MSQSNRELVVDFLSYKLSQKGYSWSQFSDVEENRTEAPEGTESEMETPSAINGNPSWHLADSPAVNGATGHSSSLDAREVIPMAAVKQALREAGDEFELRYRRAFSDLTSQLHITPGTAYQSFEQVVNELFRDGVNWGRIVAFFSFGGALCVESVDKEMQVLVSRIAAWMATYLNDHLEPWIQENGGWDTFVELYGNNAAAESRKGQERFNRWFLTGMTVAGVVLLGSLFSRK

[3] = biological target: T2, MISC-1::GFP (C. elegans) (UniProt P90992); assay: as above
T2 sequence: T1 sequence

binding [1]: binds
B1: 2-oxoglutarate carrier (OGC) (protein, UniProt Q02978 1-314)
chain: MAATASAGAGGIDGKPRTSPKSVKFLFGGLAGMGATVFVQPLDLVKNRMQLSGEGAKTREYKTSFHALTSILKAEGLRGIYTGLSAGLLRQATYTTTRLGIYTVLFERLTGADGTPPGFLLKAVIGMTAGATGAFVGTPAEVALIRMTADGRLPADQRRGYKNVFNALIRITREEGVLTLWRGCIPTMARAVVVNAAQLASYSQSKQFLLDSGYFSDNILCHFCASMISGLVTTAASMPVDIAKTRIQNMRMIDGKPEYKNGLDVLFKVVRYEGFFSLWKGFTPYYARLGPHTVLTFIFLEQMNKAYKRLFLSG

binding [2]: binds | binding [3]: binds
B2: CED-9 (protein, UniProt P41958 1-280)
chain: MTRCTADNSLTNPAYRRRTMATGEMKEFLGIKGTEPTDFGINSDAQDLPSPSRQASTRRMSIGESIDGKINDWEEPRLDIEGFVVDYFTHRIRQNGMEWFGAPGLPCGVQPEHEMMRVMGTIFEKKHAENFETFCEQLLAVPRISFSLYQDVVRTVGNAQTDQCPMSYGRLIGLISFGGFVAAKMMESVELQGQVRNLFVYTSLFIKTRIRNNWKEHNRSWDDFMTLGKQMKEDYERAEAEKVGRRKQNRRWSMIGAGVTAGAIGIVGVVVCGRMMFSLK

— article PMC3063170
